{"source": "paper PMC9239266", "binders": {"B1": {"name": "caspase-7 (endogenous) (enzyme, UniProt P55210 1-303)", "chain": "MADDQGCIEEQGVEDSANEDSVDAKPDRSSFVPSLFSKKKKNVTMRSIKTTRDRVPTYQYNMNFEKLGKCIIINNKNFDKVTGMGVRNGTDKDAEALFKCFRSLGFDVIVYNDCSCAKMQDLLKKASEEDHTNAACFACILLSHGEENVIYGKDGVTPIKDLTAHFRGDRCKTLLEKPKLFFIQACRGTELDDGIQADSGPINDTDANPRYKIPVEADFLFAYSTVPGYYSWRSPGRGSWFVQALCSILEEHGKDLEIMQILTRVNDRVARHFESQSDDPHFHEKKQIPCVVSMLTKELYFSQ"}}, "target": "T1, Flag-RFP-CopC (full-length, WT) (Chromobacterium violaceum) (UniProt Q7NWF2)", "T1 sequence": "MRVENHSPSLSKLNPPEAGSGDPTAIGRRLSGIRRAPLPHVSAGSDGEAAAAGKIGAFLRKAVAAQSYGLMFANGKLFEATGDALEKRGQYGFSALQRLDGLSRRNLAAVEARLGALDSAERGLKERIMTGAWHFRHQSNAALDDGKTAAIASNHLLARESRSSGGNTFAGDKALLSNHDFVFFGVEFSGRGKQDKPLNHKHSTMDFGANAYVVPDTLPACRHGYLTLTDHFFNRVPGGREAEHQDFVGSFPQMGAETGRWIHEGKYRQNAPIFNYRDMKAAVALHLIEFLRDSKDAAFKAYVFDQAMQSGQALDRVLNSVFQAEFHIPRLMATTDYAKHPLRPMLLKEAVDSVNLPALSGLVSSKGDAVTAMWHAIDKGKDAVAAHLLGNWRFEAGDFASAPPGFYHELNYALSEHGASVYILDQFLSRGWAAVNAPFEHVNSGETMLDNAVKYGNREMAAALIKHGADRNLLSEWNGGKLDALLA", "experiment": "affinity purification with mass spectrometry", "note": "Results are given in words; binding and its absence hold for the method and conditions named. Binding seen in cells or lysates may run through a third protein. These calls come from enrichment with a bait or labelling near it, and not all partners need be listed. Where a sequence is shown, tags or fusion partners need not be part of it."}
{"binder": "B1", "values": [{"measurement": "binding", "result": "binds"}]}
